# Reference: patent US4305940A, “Benzamides with local anaesthetic and antiarrhythmic activity, salts, and method of preparation thereof and pharmaceutical compositions therefrom” (B.B.R. Boehringer Biochemia Robin S.p.A., priority 1979, dated 1981)
# Assay: in vivo
# Conditions: rat, ip, 5 days, hydrochloride salts, range in parentheses, read-out: DL50 i.p.
# Description: Acute toxicity has been determined in Swiss rats by the intraperitoneal injection of the compounds dissolved in physiological saline solution. The behavior of the animals has then been followed for a period of five days. The DL50 has been determined according to the method of I. T. Litchfield and F. Wilcoxon, (J. Pharmacol. Exper. Ther., 96, 99, 1949). The compound numbers in Table II correspond to the numbers in Table I.
smiles,measurement,value
"CCN(CC)CC(=O)Nc1c(C)cccc1C [Lidocaine, α-diethylamino-2,6-dimethyl-acetanilide, reference compound]",LD50 at 120 h,142 mg/kg
